Record: PubChem BioAssay AID1259405 (NCATS, 2018)
Shown is a random part of about 50,000 reagents. About 4,000 of them (8%) were called active. 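Mouse siRNA library applied to hamster cells; one well for each siRNA.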 Unmarked entries are inactive. The numbers tell different reagents against one gene apart.

- Screen: 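Knock-downs that lift recombinant protein yield in hamster ovary cells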 (primary screen)
- System: Chinese hamster CHO-K1 ovary cells with stable secreted eGFP expression
- Knock-down reagent: single siRNA against mouse genes, 0.8 pmol siRNA per well (2 µl of 400 nM stock)
- Duration: 3 days
- Read-out: 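Per-well intracellular GFP measured by laser scanning cytometry, plus viability from ATP luminescence, each relative to plate median of non-targeting control wells, in %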
- Direction: GFP, % of control: higher = more GFP per well, higher productivity; viability (ATP), % of control: higher = more viable cells (more ATP)
- Active means: 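Called active when intracellular GFP, relative to negative control, is at or above 120%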

The opening 4 entries as a preview:
no.	gene	siRNA no.	GFP, % of control	viability (ATP), % of control
1	Bptf (bromodomain PHD finger transcription factor)	1	67.6	34.5
2	Bptf (bromodomain PHD finger transcription factor)	2	82.4	75.6
3	Bptf (bromodomain PHD finger transcription factor)	3	48.5	42.2
4	Gtf2i (general transcription factor II I)	1	73.3	85.7

The listing, from the start:
no.	gene	siRNA no.	GFP, % of control	viability (ATP), % of control
1	Bptf (bromodomain PHD finger transcription factor)	1	67.6	34.5
2	Bptf (bromodomain PHD finger transcription factor)	2	82.4	75.6
3	Bptf (bromodomain PHD finger transcription factor)	3	48.5	42.2
4	Gtf2i (general transcription factor II I)	1	73.3	85.7
5	Gtf2i (general transcription factor II I)	2	36.5	38.4
6	Gtf2i (general transcription factor II I)	3	92.9	102
7	Pip4k2b (phosphatidylinositol-5-phosphate 4-kinase, type II, beta)	1	70.3	92.3
8	Kcna7	1	78.4	43.8
9	Kcna7	2	13	6.6
10	Kcna7	3	84.8	79.3
11	Mrpl45 (mitochondrial ribosomal protein L45)	1	130 (active)	77.1
12	Mrpl45 (mitochondrial ribosomal protein L45)	2	97.4	82.2
13	Mrpl45 (mitochondrial ribosomal protein L45)	3	90.2	54.6
14	Rps27a (ribosomal protein S27A)	1	52.8	37.3
15	Rps27a (ribosomal protein S27A)	2	64.5	35.5
16	Rps27a (ribosomal protein S27A)	3	49.3	33.7
17	Defb21 (defensin beta 21)	1	81.4	82.8
18	Defb21 (defensin beta 21)	2	67	41
19	Defb21 (defensin beta 21)	3	55	63.8
20	Cyp2c38 (cytochrome P450, family 2, subfamily c, polypeptide 38)	1	94.8	92.6
21	Cyp2c38 (cytochrome P450, family 2, subfamily c, polypeptide 38)	2	116	87.9
22	Cyp2c38 (cytochrome P450, family 2, subfamily c, polypeptide 38)	3	77.8	68.5
23	Armcx3 (armadillo repeat containing, X-linked 3)	1	66.5	61.4
24	Armcx3 (armadillo repeat containing, X-linked 3)	2	79.9	86
25	Armcx3 (armadillo repeat containing, X-linked 3)	3	81.9	85
26	Grm7 (glutamate receptor, metabotropic 7)	1	69.2	79.2
27	Grm7 (glutamate receptor, metabotropic 7)	2	117	85.8
28	Grm7 (glutamate receptor, metabotropic 7)	3	77.6	69.9
29	Ttc1 (tetratricopeptide repeat domain 1)	1	65.3	82.8
30	Ttc1 (tetratricopeptide repeat domain 1)	2	61.4	67.5
31	Gtf2h3 (general transcription factor IIH, polypeptide 3)	1	86.5	68.6
32	Gtf2h3 (general transcription factor IIH, polypeptide 3)	2	87.7	68.7
33	Ctdnep1 (CTD nuclear envelope phosphatase 1)	1	41.7	51.3
34	Ctdnep1 (CTD nuclear envelope phosphatase 1)	2	76.2	66.7
35	Ctdnep1 (CTD nuclear envelope phosphatase 1)	3	101	38.7
36	Hint1 (histidine triad nucleotide binding protein 1)	1	91.1	92.2
37	Hint1 (histidine triad nucleotide binding protein 1)	2	88.4	55.8
38	Hint1 (histidine triad nucleotide binding protein 1)	3	111	86.9
39	Npm1 (nucleophosmin 1)	1	82.1	61.2
40	Npm1 (nucleophosmin 1)	2	76.1	81.2
41	Npm1 (nucleophosmin 1)	3	50.1	66.5
42	Or5b113 (olfactory receptor family 5 subfamily B member 113)	1	74.8	71.3
43	Or5b113 (olfactory receptor family 5 subfamily B member 113)	2	66.8	90.6
44	Or5b113 (olfactory receptor family 5 subfamily B member 113)	3	71.2	71.3
45	Zfp13 (zinc finger protein 13)	1	39.9	48.5
46	Zfp13 (zinc finger protein 13)	2	76.4	85
47	Zfp13 (zinc finger protein 13)	3	37.1	65.1
48	Ptpn6 (protein tyrosine phosphatase, non-receptor type 6)	1	110	79.3
49	Ptpn6 (protein tyrosine phosphatase, non-receptor type 6)	2	83	65.4
50	Ptpn6 (protein tyrosine phosphatase, non-receptor type 6)	3	66.3	66.6
51	Gsta4 (glutathione S-transferase, alpha 4)	1	87.5	92.6
52	Gsta4 (glutathione S-transferase, alpha 4)	2	83.7	68.6
53	Gsta4 (glutathione S-transferase, alpha 4)	3	64.8	59.5
54	Dnajc14 (DnaJ heat shock protein family (Hsp40) member C14)	1	108	60.2
55	Dnajc14 (DnaJ heat shock protein family (Hsp40) member C14)	2	54.5	52.5
56	Dnajc14 (DnaJ heat shock protein family (Hsp40) member C14)	3	16.8	33.1
57	Nppc (natriuretic peptide type C)	1	85.4	59
58	Nppc (natriuretic peptide type C)	2	71	104
59	Nppc (natriuretic peptide type C)	3	96.9	58.2
60	Vmn1r148 (vomeronasal 1 receptor 148)	1	132 (active)	85.3
61	Vmn1r148 (vomeronasal 1 receptor 148)	2	70.9	57.3
62	Vmn1r148 (vomeronasal 1 receptor 148)	3	101	97.5
63	Lrrc27 (leucine rich repeat containing 27)	1	79.6	87.3
64	Lrrc27 (leucine rich repeat containing 27)	2	77.1	59.9
65	Lrrc27 (leucine rich repeat containing 27)	3	74	61.3
66	Gsg1 (germ cell associated 1)	1	96.9	90.7
67	Gsg1 (germ cell associated 1)	2	121 (active)	98.7
68	Gsg1 (germ cell associated 1)	3	81.2	75.7
69	Nlrp6 (NLR family, pyrin domain containing 6)	1	79.5	72.9
70	Nlrp6 (NLR family, pyrin domain containing 6)	2	22.3	27.1
71	Nlrp6 (NLR family, pyrin domain containing 6)	3	62.7	41.8
72	Or5ac23 (olfactory receptor family 5 subfamily AC member 23)	1	55.5	65.2
73	Or5ac23 (olfactory receptor family 5 subfamily AC member 23)	2	74.2	51
74	Or5ac23 (olfactory receptor family 5 subfamily AC member 23)	3	53.4	84.8
75	Riox1 (ribosomal oxygenase 1)	1	41.1	51.9
76	Riox1 (ribosomal oxygenase 1)	2	40.1	58.1
77	Riox1 (ribosomal oxygenase 1)	3	87.4	97.2
78	Nrxn2 (neurexin II)	1	69.8	89.7
79	Nrxn2 (neurexin II)	2	72.5	96.7
80	Nrxn2 (neurexin II)	3	86.6	89.6
81	Pcdhb6 (protocadherin beta 6)	1	79.2	26.3
82	Pcdhb6 (protocadherin beta 6)	2	83.8	53.5
83	Pcdhb6 (protocadherin beta 6)	3	37.5	33.9
84	Zgrf1 (zinc finger, GRF-type containing 1)	1	86.9	102
85	Zgrf1 (zinc finger, GRF-type containing 1)	2	68.7	79.2
86	Zgrf1 (zinc finger, GRF-type containing 1)	3	89.6	82
87	Nradd (neurotrophin receptor associated death domain)	1	181 (active)	57.4
88	Nradd (neurotrophin receptor associated death domain)	2	106	86.1
89	Nradd (neurotrophin receptor associated death domain)	3	26.9	11.9
90	Tmbim1 (transmembrane BAX inhibitor motif containing 1)	1	58.5	104
91	Tmbim1 (transmembrane BAX inhibitor motif containing 1)	2	103	73.2
92	Tmbim1 (transmembrane BAX inhibitor motif containing 1)	3	62	70.2
93	Tgds (TDP-glucose 4,6-dehydratase)	1	117	135
94	Tgds (TDP-glucose 4,6-dehydratase)	2	63.6	80.9
95	Gpr132 (G protein-coupled receptor 132)	1	104	90
96	Gpr132 (G protein-coupled receptor 132)	2	72.9	68.7
97	Gpr132 (G protein-coupled receptor 132)	3	79	73
98	Ccdc14 (coiled-coil domain containing 14)	1	68.3	86.2
99	Ccdc14 (coiled-coil domain containing 14)	2	91.3	82.1
100	Ccdc14 (coiled-coil domain containing 14)	3	99.8	71.9
101	Pex2 (peroxisomal biogenesis factor 2)	1	116	65.9
102	Pex2 (peroxisomal biogenesis factor 2)	2	45	64.5
103	Pex2 (peroxisomal biogenesis factor 2)	3	79	93.5
104	6030452D12Rik (RIKEN cDNA 6030452D12 gene)	1	58.9	32.2
105	6030452D12Rik (RIKEN cDNA 6030452D12 gene)	2	69.5	90.9
106	6030452D12Rik (RIKEN cDNA 6030452D12 gene)	3	85.2	127
107	Lgr5 (leucine rich repeat containing G protein coupled receptor 5)	1	154 (active)	122
108	Lgr5 (leucine rich repeat containing G protein coupled receptor 5)	2	42.3	45.8
109	Lgr5 (leucine rich repeat containing G protein coupled receptor 5)	3	85	71.2
